No constants are given. Whether binding was seen depends on the method and setting. Binding seen in cells or lysates may run through a third protein. A result given as binding can be weak or reduced; the word gives no strength. Sequences can lack the tags named with a protein.
Biological target: T1, Flag-RITA (UniProt Q96K30)
T1 sequence: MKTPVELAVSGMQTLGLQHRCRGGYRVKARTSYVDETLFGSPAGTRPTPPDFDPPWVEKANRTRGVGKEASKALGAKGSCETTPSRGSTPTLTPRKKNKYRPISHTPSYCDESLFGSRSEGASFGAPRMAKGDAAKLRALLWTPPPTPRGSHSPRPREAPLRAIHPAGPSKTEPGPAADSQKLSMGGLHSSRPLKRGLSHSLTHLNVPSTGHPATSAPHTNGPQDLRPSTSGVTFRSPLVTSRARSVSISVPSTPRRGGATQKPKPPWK
Assay: co-IP; HeLa cells transfected with Flag empty vector or Flag-RITA; lysates in RIPA buffer (600-800 µg); Flag-M2 affinity gel, 4 °C overnight, washed three times; western blot

With α-tubulin (human (endogenous in HeLa)) the binding was “binds”.
